# Source: PubChem BioAssay AID1117319 (Southern Research Institute, 2015)
# Sequences of proteins named here, by UniProt entry; tags and fusion partners are left off. A change or cut given only in a name is not applied to a line headed by its entry.
# UniProt P69720: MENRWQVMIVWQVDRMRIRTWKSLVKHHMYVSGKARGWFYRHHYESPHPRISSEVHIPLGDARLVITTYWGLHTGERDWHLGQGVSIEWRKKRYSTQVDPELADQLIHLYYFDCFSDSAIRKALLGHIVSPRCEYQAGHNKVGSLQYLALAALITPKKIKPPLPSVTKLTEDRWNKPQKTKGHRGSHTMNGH
# UniProt P69721: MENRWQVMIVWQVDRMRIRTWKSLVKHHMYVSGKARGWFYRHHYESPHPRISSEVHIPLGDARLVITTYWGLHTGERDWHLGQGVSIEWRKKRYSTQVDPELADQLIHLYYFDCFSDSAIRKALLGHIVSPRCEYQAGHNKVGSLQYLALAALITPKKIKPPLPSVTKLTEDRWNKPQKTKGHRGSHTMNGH
# UniProt P69722: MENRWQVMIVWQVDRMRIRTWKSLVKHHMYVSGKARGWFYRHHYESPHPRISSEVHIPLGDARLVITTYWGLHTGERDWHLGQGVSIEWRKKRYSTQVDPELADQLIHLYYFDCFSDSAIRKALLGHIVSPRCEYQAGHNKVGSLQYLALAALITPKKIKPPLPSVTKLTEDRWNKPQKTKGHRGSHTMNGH
# UniProt P69723: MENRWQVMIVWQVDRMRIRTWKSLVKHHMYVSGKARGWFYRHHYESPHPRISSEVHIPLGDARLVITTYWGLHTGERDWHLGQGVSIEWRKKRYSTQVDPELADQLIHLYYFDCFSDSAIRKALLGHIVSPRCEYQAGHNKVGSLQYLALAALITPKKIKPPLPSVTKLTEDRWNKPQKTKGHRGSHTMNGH
# UniProt Q9HC16: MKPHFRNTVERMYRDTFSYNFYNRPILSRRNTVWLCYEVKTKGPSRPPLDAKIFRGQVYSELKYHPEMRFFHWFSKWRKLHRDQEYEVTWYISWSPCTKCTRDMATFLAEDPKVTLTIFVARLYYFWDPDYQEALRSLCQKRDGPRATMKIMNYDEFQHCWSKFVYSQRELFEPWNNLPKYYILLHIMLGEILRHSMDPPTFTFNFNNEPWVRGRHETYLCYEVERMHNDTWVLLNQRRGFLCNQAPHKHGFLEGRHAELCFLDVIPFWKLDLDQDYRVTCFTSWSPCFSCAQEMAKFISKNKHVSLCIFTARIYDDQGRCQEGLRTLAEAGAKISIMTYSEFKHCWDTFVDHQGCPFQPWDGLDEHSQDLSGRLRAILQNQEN
# Screen size: about 260,000 compounds; about 1,500 (0.58%) were called active. The shares of active, inactive and inconclusive entries below differ from those in the screen.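 How the source made its calls: active means inhibition above a set limit at one or more doses, reproduced on every date tested; inconclusive means results disagree between test dates, or hit never tested in dose response; inactive means the rest.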
# Biological target: Virion infectivity factor (Human immunodeficiency virus type 1 group M subtype B (isolate BH10)) + Virion infectivity factor (Human immunodeficiency virus type 1 group M subtype B (isolate BRU/LAI)) + Virion infectivity factor (Human immunodeficiency virus type 1 group M subtype B (isolate PCV12)) + Virion infectivity factor (Human immunodeficiency virus type 1 group M subtype B (isolate HXB2)) + DNA dC->dU-editing enzyme APOBEC-3G (Homo sapiens) (UniProt P69720+P69721+P69722+P69723+Q9HC16)
# Assay: inhibitors of Vif binding to APOBEC3G peptide, primary screen, biochemical, TR-FRET, GST-Vif 1-94, biotin-A3G peptide, dose response retest (AID 1117319);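 further: Vif residues 1-94 fused to GST binding biotinylated APOBEC3G peptide 110-148; 0% = full assay without inhibitor and 100% = GST in place of GST-Vif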
# Conditions: active compounds read high
row,SMILES,inhibition
1,N#Cc1c(-c2ccco2)cc(-c2cccnc2)nc1N,inconclusive: 42.2%
2,CC(C)N1CCC(N2CCN(Cc3ccc4nsnc4c3)CC2CCO)CC1 (configuration not stated),inconclusive: 50.8%
3,Cc1c(C(O)CN2CCN(Cc3ccc4c(c3)OCO4)CC2)c2ccccc2n1C (configuration not stated),inconclusive: 34.8%
4,COc1ccc(C(=O)NCCc2cc3ccc(C)c(C)c3[nH]c2=O)cc1OC,inconclusive: 34.9%
5,COc1ccccc1N1CCN(C(=O)CCNS(=O)(=O)c2ccc3c(c2)CCC(=O)N3)CC1,inconclusive: 35%
6,CC1(C)Cc2ccccc2-c2nnc(-c3cccc(O)c3)n21,inconclusive: 37.5%
7,CCOP(=O)(c1ccc(N(C)C)cc1)C(O)c1ccncc1 (configuration not stated),inconclusive: 47.3%
8,CCC(C)NC(=O)c1cn(CC)c2ccc(S(=O)(=O)N(C)C)cc2c1=O (configuration not stated),inconclusive: 41.4%
9,Cc1ccc(NC(=S)/C(=C(\[O-])c2ccc(F)cc2)[n+]2ccccc2)cc1,inconclusive: 35.6%
10,CN1C(=O)CSC1=Nc1cccc(C(=O)O)c1,inactive: -5.13%
11,N#Cc1c(SCC(=O)Nc2nc3ccccc3s2)sc2c(O)cc(=O)[nH]c12,inconclusive: 39.6%
12,O=C(C(NS(=O)(=O)c1cccs1)c1ccccc1)N1CCN(c2ccccc2F)CC1 (configuration not stated),inconclusive: 43.2%
13,C/C(=N/Nc1nc(-c2ccccc2)c(CC(=O)O)s1)c1ccccc1,inconclusive: 54.1%
14,Cc1ccc(SCc2nnc(N)s2)cc1,inconclusive: 34.9%
15,CCOCCCNCc1cccc(OC)c1,inactive: -0.48%
16,Cc1ccc(CNC(=O)C2CC(=O)N(c3ccc(OCC(=O)N4CCCC4)cc3)C2)cc1 (configuration not stated),inactive: -0.42%
17,Cc1c(NC(=O)c2c(N)sc3c2CCCC3)c(=O)n(-c2ccccc2)n1C,inconclusive: 39.4%
18,CCC(C)[C@H](NC(=O)NCc1cccs1)C(=O)O (some centres not stated),inconclusive: 14.7%
19,S=C(c1ccc(-c2cccc(Cl)c2)o1)N1CCOCC1,inconclusive: 33.2%
20,Cc1ccc([N+](=O)[O-])cc1-c1[nH]c(-c2ccc(O)c(O)c2)nc1-c1ccccc1,inconclusive: 43%
21,C=CCn1c(N2CCCC2)nc2c1c(=O)[nH]c(=O)n2C,inactive: -1.68%
22,COc1ccc(O)c(/C=N/NC(=S)Nc2cccc(S(=O)(=O)N(C)C)c2)c1,inactive: 12.6%
23,O=C(CNS(=O)(=O)c1ccccc1Br)OCC(=O)N1CCc2ccccc21,inactive: 4.27%

row,SMILES,inhibition
1,COc1ccc(COC(=O)N/C=C/c2ccco2)cc1,inconclusive: 37.1%
2,O=C(O)C1CCCNC1 (configuration not stated),inconclusive: 38.5%
3,Cc1cc(Cl)ccc1OCC(=O)NCc1ccncc1,inconclusive: 40.3%
4,CC1(C)Cc2c(c(-c3ccco3)[nH]c(=O)c2C#N)CO1,inconclusive: 34.5%
5,Nc1nnc2c(n1)CCCC2,inconclusive: 48%
6,Cc1ccccc1-n1nnnc1SCC(=O)N(C)C1CCS(=O)(=O)C1 (configuration not stated),inconclusive: 36.1%
7,Oc1ccc(/C=N/Nc2ccc(C(F)(F)F)cn2)cc1O,inconclusive: 34.7%
8,C/C(=N\NC(=O)c1ccc(Cl)cc1)c1ccc(Br)s1,inconclusive: 53%
9,CC(=O)Oc1cc2c(cc1OC(C)=O)C(=O)CCCC2,inactive: -3.59%
10,CC(CC(C)C(=O)Nc1ccccc1C(C)(C)C)C(=O)O (configuration not stated),inactive: 5.47%
11,CCCCNC(=O)NNC(=O)c1ccoc1C,inconclusive: 56.8%
12,CC[C@H](C)[C@@H]1NC(=O)c2cc([N+](=O)[O-])cc(F)c2NCCCC[C@@H](C(N)=O)NC(=O)[C@H](CC(N)=O)NC1=O,inconclusive: 40.5%
13,CCOC(=O)c1cnn(-c2nc(-c3ccccc3F)cs2)c1C(F)(F)F,inconclusive: 40.7%
14,COC(=O)c1c(NC(=O)C2COc3ccccc3O2)sc2c1CCN(C(C)=O)C2 (configuration not stated),inconclusive: 33%
15,Cc1cccc[n+]1CC(=O)Nc1cccc([N+](=O)[O-])c1,inconclusive: 38.5%
16,O=C(OCCCN1CCCCC1)c1ccc(O)cc1,inconclusive: 38.8%
17,O=C(N/N=C/c1ccc(N2CCCCC2)o1)c1ccccc1[N+](=O)[O-],inconclusive: 37.4%
18,COc1ccc2c(-c3cc4ccc(OCc5ccc(F)cc5)cc4oc3=O)cc(=O)oc2c1,inconclusive: 39%
19,CNc1cccc2c1C(=O)c1ccccc1C2=O,inactive: 7.57%
20,COc1cccc(C2CC(c3ccccc3Cl)n3nnnc3N2)c1 (configuration not stated),inconclusive: 39.8%
21,CN(C)c1ccc(Cl)cc1N,inconclusive: 39.2%
22,O=C(Cn1cnc2ccccc2c1=O)NCc1ccc2c(c1)OCO2,inconclusive: 43.2%
23,Cc1cc(-c2csc(N)n2)c(C)n1C,inconclusive: 54.9%

row,SMILES,inhibition
1,CNS(=O)(=O)c1cccc(C(=O)OCC(=O)NC(C)CCc2ccccc2)c1 (configuration not stated),inactive: 1.38%
2,COc1cc2c(cc1OC)-c1cc(Nc3ccccc3)nc(=O)n1CC2,inconclusive: 41%
3,CCOc1ccccc1NC(=O)NC(C)c1ccncc1 (configuration not stated),inconclusive: 33.8%
4,CNC(=O)C1CC(=O)N(c2ccc(F)c(Cl)c2)C1 (configuration not stated),inconclusive: 16.5%
5,COc1ccc(NC(=O)c2oc3ccccc3c2NC(=O)C2CC2)c(OC)c1,inconclusive: 49.9%
6,Cc1ccc2c(c1)/C(=C/c1ccco1)C(=O)N2,inactive: 6.3%
7,COc1ccc(NC(=O)c2cc(C)nc3ccccc23)cc1S(=O)(=O)N1CCOCC1,inactive: -2.24%
8,CCC(C)C(NC(=O)c1ccc(Cl)cc1)C(=O)O (configuration not stated),inconclusive: 39.8%
9,COc1ccc(OC)c(-n2c(-c3cc(-c4ccco4)[nH]n3)n[nH]c2=S)c1,inconclusive: 37.2%
10,COCCn1cnnc1SCC(=O)Nc1sccc1C(N)=O,inconclusive: 64.2%
11,O=S(=O)(Nc1ccc(N2CCCCC2)cc1)c1cccs1,inconclusive: 37.2%
12,NNC(=O)CN1C(=O)Nc2ccc(Br)cc2C1c1ccccc1 (configuration not stated),inconclusive: 45.3%
13,Cc1ccc(/C=C/C(=O)Nc2nccs2)o1,inconclusive: 37.5%
14,COc1ccc(NCc2ccc3c(c2)OCO3)cc1Cl,inconclusive: 34.5%
15,N#C/C(C(=O)NCc1ccco1)=C1/SC(Cc2ccc(Cl)cc2)C(=O)N1c1ccccc1 (configuration not stated),inconclusive: 51.2%
16,Cc1cc(C)n(C(=O)C2CCCN2S(=O)(=O)c2ccc(Cl)cc2)n1 (configuration not stated),inconclusive: 36.3%
17,CCOC(=O)C1=C(CSc2nc3c(cc2C#N)CN(C)CC3)OC(N)=C(C#N)C1c1ccncc1 (configuration not stated),inconclusive: 39%
18,O=C(Cc1ccc(-c2ccccc2)cc1)OCC(=O)N1CCCC1=O,inconclusive: 47.6%
19,Cn1c(CSc2nc3ccccc3s2)nnc1SCC(=O)NCc1cccnc1,inconclusive: 43.4%
20,COc1cc(/C=C(\C#N)C(=O)NC2CCCCC2C)ccc1OS(=O)(=O)c1ccc(C)cc1 (configuration not stated),inconclusive: 41.4%
21,O=C(CN1CCN(C(=O)c2ccco2)CC1)Nc1cc(C(F)(F)F)ccc1Cl,inconclusive: 61.4%
22,FC(F)(F)c1cccc(-n2c(Cn3nnc4ccccc43)n[nH]c2=S)c1,inconclusive: 44.2%
23,O=C(NC(=S)Nc1ccc(N2CCCCC2)cc1)c1cccs1,inconclusive: 52.3%

# Another view of some results above:
row	SMILES	inhibition
18	CCC(C)[C@H](NC(=O)NCc1cccs1)C(=O)O (some centres not stated)	inconclusive: 14.7%
19	S=C(c1ccc(-c2cccc(Cl)c2)o1)N1CCOCC1	inconclusive: 33.2%
20	Cc1ccc([N+](=O)[O-])cc1-c1[nH]c(-c2ccc(O)c(O)c2)nc1-c1ccccc1	inconclusive: 43%
21	C=CCn1c(N2CCCC2)nc2c1c(=O)[nH]c(=O)n2C	inactive: -1.68%
22	COc1ccc(O)c(/C=N/NC(=S)Nc2cccc(S(=O)(=O)N(C)C)c2)c1	inactive: 12.6%
23	O=C(CNS(=O)(=O)c1ccccc1Br)OCC(=O)N1CCc2ccccc21	inactive: 4.27%
1	COc1ccc(COC(=O)N/C=C/c2ccco2)cc1	inconclusive: 37.1%
2	O=C(O)C1CCCNC1 (configuration not stated)	inconclusive: 38.5%
3	Cc1cc(Cl)ccc1OCC(=O)NCc1ccncc1	inconclusive: 40.3%
4	CC1(C)Cc2c(c(-c3ccco3)[nH]c(=O)c2C#N)CO1	inconclusive: 34.5%
5	Nc1nnc2c(n1)CCCC2	inconclusive: 48%
6	Cc1ccccc1-n1nnnc1SCC(=O)N(C)C1CCS(=O)(=O)C1 (configuration not stated)	inconclusive: 36.1%
7	Oc1ccc(/C=N/Nc2ccc(C(F)(F)F)cn2)cc1O	inconclusive: 34.7%
8	C/C(=N\NC(=O)c1ccc(Cl)cc1)c1ccc(Br)s1	inconclusive: 53%
9	CC(=O)Oc1cc2c(cc1OC(C)=O)C(=O)CCCC2	inactive: -3.59%
10	CC(CC(C)C(=O)Nc1ccccc1C(C)(C)C)C(=O)O (configuration not stated)	inactive: 5.47%
11	CCCCNC(=O)NNC(=O)c1ccoc1C	inconclusive: 56.8%
12	CC[C@H](C)[C@@H]1NC(=O)c2cc([N+](=O)[O-])cc(F)c2NCCCC[C@@H](C(N)=O)NC(=O)[C@H](CC(N)=O)NC1=O	inconclusive: 40.5%
13	CCOC(=O)c1cnn(-c2nc(-c3ccccc3F)cs2)c1C(F)(F)F	inconclusive: 40.7%
14	COC(=O)c1c(NC(=O)C2COc3ccccc3O2)sc2c1CCN(C(C)=O)C2 (configuration not stated)	inconclusive: 33%
15	Cc1cccc[n+]1CC(=O)Nc1cccc([N+](=O)[O-])c1	inconclusive: 38.5%
16	O=C(OCCCN1CCCCC1)c1ccc(O)cc1	inconclusive: 38.8%
17	O=C(N/N=C/c1ccc(N2CCCCC2)o1)c1ccccc1[N+](=O)[O-]	inconclusive: 37.4%
18	COc1ccc2c(-c3cc4ccc(OCc5ccc(F)cc5)cc4oc3=O)cc(=O)oc2c1	inconclusive: 39%
19	CNc1cccc2c1C(=O)c1ccccc1C2=O	inactive: 7.57%
20	COc1cccc(C2CC(c3ccccc3Cl)n3nnnc3N2)c1 (configuration not stated)	inconclusive: 39.8%
21	CN(C)c1ccc(Cl)cc1N	inconclusive: 39.2%

# A portion from further up:
row,SMILES,inhibition
15,N#C/C(C(=O)NCc1ccco1)=C1/SC(Cc2ccc(Cl)cc2)C(=O)N1c1ccccc1 (configuration not stated),inconclusive: 51.2%
16,Cc1cc(C)n(C(=O)C2CCCN2S(=O)(=O)c2ccc(Cl)cc2)n1 (configuration not stated),inconclusive: 36.3%

# Further records follow:

row,SMILES,inhibition
1,O=C(CN1CCN(Cc2ccccc2)CC1)N1N=CCC1c1ccccc1 (configuration not stated),inconclusive: 48.6%
2,Cc1ccc(-c2cc(C(=O)Nc3ccc(S(=O)(=O)Nc4nc(C)cc(C)n4)cc3)c3ccccc3n2)cc1,inconclusive: 40.2%
3,O=c1/c(=C/c2ccco2)sc2nc(-c3ccccc3Br)nn12,inconclusive: 35.6%
4,CN(C)C(=O)C(CCN1CCC(O)(c2ccc(Cl)cc2)CC1)(c1ccccc1)c1ccccc1,inconclusive: 54.5%
5,NC(=O)c1ccc([N+](=O)[O-])cc1SCc1ccccc1,inconclusive: 34.3%
6,O=C(CCNc1cccc(F)c1)c1cc2ccccc2o1,inconclusive: 34.3%
7,CCOC(CCn1c(SCc2ccc([N+](=O)[O-])cc2)nc2ccccc2c1=O)OCC,inconclusive: 43.8%
8,CC(=O)c1cccc(S(=O)(=O)N2CCC(n3nnc4cc(F)ccc43)CC2)c1,inconclusive: 43%
9,COc1ccccc1[C@@H]1C(c2ccc(F)cc2)=NN(c2ccccc2)[C@H]1C(=O)N1CCOC1=O,inconclusive: 60%
10,CSCCC(NC(=O)COc1ccccc1)C(=O)O (configuration not stated),inconclusive: 55.2%
11,COc1ccc(OC)c(NC(=O)CCN2CCN(C)CC2)c1,inactive: 2.28%
12,O=C(NCc1ccco1)c1cc2ccccc2c(=O)o1,inconclusive: 40.1%
13,COc1ccc(/C=C/c2c([N+](=O)[O-])c(=O)n(C)c(=O)n2C)cc1,inconclusive: 33.4%
14,CC(C(=O)O)n1c(-c2ccn[nH]2)n[nH]c1=S (configuration not stated),inconclusive: 35.6%
15,N#Cc1ccc(Oc2ccc(C(F)(F)F)cc2NC(=O)c2ccc(F)cc2)cc1,inconclusive: 52.6%
16,Cc1ccccc1-c1n[nH]c(=S)n1/N=C/C=C/c1ccco1,inconclusive: 60.1%
17,Cc1cc(/C=C/C(=O)O)c(C)n1-c1ccc(Cl)cc1,inconclusive: 43.6%
18,COc1cccc(Cn2nnc(C(=O)Nc3ccc(C)cc3)c2N)c1,inconclusive: 38.3%
19,Oc1ccccc1C1Nc2cccc3cccc(c23)N1,inactive: 20%
20,COc1cc(C(=O)NCCOc2ccccc2C)c(Br)c(OC)c1OC,inconclusive: 36.3%
21,O=C(CNCCC1=CCCCC1)Nc1ccccc1N1CCCCC1,inconclusive: 35.4%
22,COc1ccccc1NC(=O)/C(=C\c1cccs1)NC(=O)c1ccco1,inconclusive: 57.2%
23,O=C(Nc1nc(-c2ccccc2)cs1)c1cccc([N+](=O)[O-])c1C(=O)O,inconclusive: 44.5%
